Reference: paper PMC8448735
These are yes or no findings as the source states them, for the method shown. Binding seen in cells or lysates may run through a third protein. Some entries that bind do so weakly or less than the wild type. Sequences can lack the tags named with a protein.

T1: HA-mTPP1 (mouse) (UniProt Q5EE38)
T1 sequence: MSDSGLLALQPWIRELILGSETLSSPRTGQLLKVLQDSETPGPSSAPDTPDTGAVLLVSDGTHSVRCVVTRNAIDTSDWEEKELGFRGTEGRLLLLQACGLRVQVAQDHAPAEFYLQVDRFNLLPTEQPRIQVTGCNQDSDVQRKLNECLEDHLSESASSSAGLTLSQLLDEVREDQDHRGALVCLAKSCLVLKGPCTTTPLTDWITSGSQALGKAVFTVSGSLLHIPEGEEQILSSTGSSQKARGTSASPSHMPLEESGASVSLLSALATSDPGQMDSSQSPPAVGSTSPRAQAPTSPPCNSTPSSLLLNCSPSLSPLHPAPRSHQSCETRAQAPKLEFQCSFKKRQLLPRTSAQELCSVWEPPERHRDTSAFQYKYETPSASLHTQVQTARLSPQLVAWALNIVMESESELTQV


Target: T1, HA-mTPP1 (mouse)
Test: co-IP; 293T cells co-transfected with WT or mutant Myc-POT1a or Flag-POT1b and HA-mTPP1; lysates in TEB150 buffer (50 mM Hepes pH7.3, 150 mM NaCl, 2 mM MgCl2, 5 mM EGTA, 0.5% Triton-X-100, 10% Glycerol, proteinase inhibitors) for 6 h at 4 °C with anti-Tag antibody cross-linked agarose beads; eluate analysed by immunoblotting

Binder	binding
Myc-POT1a^WT (protein, UniProt Q91WC1 1-640) MSLVSTAPYTYTPLNLLKEGTIANVYGVVKFFKPPYVSKGTDYCSVVTIVDQTNVKLTCMLFSGNYEALPIIYKVGDIVRFHRLKIQVYKNELQGINCSGFASLTFEGTVGMPVTARTSSKVFSFTPQDQKMVEALRVWASKHISASSTLVQLCDAQPMQYYDLTCQLLGKAQVDSTAFLLKVWDGTQTVLPSWRVSTQDLTFEGDLSHIERLQSLVVDILVYDNHVQVARSIEVGCFLRLYSLHTKLQPGNSETSSSESLRLEFHLHGGTSYGRGIRVLPDTSPCVDQLKKALEGANLPVTETSTGICQSENGDSSALSNSGSGAVSPYEEERCQQVSATILTNHQHLEKTPLCAILTQKAPQQYRVRAKLRSYLPRRLSQSVKLLCPKCHSVQEVPHGDSLDKILQDAATEAPDIKLKATSLYYSKVWTTEDQGGRQVAVHFVKNNGILPASSECLILIEGGRLCEVSKLSSKFHSVMPVRSGPESLELLTLSAPFLIQGKVHHYGCKQCSSLKPIQNLNSRFHKGPWTPSSVAEALGVVPLQYVFVMVFTLDDGTGVLEAYLKDSEHFFKIPASEVLTDDDLQRSLETIMDMICPPGIKVDAYPWLECLLKSYNVTIGTERRICYQIFDTTVAENVV	binds
Myc-POT1a^DDE (protein, UniProt Q91WC1 1-640) MSLVSTAPYTYTPLNLLKEGTIANVYGVVKFFKPPYVSKGTDYCSVVTIVDQTNVKLTCMLFSGNYEALPIIYKVGDIVRFHRLKIQVYKNELQGINCSGFASLTFEGTVGMPVTARTSSKVFSFTPQDQKMVEALRVWASKHISASSTLVQLCDAQPMQYYDLTCQLLGKAQVDSTAFLLKVWDGTQTVLPSWRVSTQDLTFEGDLSHIERLQSLVVDILVYDNHVQVARSIEVGCFLRLYSLHTKLQPGNSETSSSESLRLEFHLHGGTSYGRGIRVLPDTSPCVDQLKKALEGANLPVTETSTGICQSENGDSSALSNSGSGAVSPYEEERCQQVSATILTNHQHLEKTPLCAILTQKAPQQYRVRAKLRSYLPRRLSQSVKLLCPKCHSVQEVPHGDSLDKILQDAATEAPDIKLKDTSLYDSEVWTTEDQGGRQVAVHFVKNNGILPASSECLILIEGGRLCEVSKLSSKFHSVMPVRSGPESLELLTLSAPFLIQGKVHHYGCKQCSSLKPIQNLNSRFHKGPWTPSSVAEALGVVPLQYVFVMVFTLDDGTGVLEAYLKDSEHFFKIPASEVLTDDDLQRSLETIMDMICPPGIKVDAYPWLECLLKSYNVTIGTERRICYQIFDTTVAENVV	binds
